The record followed here is PMC11712024.

Protein sequences, listed by entry. Tags and fused reporters are not part of them.
UniProt P54609: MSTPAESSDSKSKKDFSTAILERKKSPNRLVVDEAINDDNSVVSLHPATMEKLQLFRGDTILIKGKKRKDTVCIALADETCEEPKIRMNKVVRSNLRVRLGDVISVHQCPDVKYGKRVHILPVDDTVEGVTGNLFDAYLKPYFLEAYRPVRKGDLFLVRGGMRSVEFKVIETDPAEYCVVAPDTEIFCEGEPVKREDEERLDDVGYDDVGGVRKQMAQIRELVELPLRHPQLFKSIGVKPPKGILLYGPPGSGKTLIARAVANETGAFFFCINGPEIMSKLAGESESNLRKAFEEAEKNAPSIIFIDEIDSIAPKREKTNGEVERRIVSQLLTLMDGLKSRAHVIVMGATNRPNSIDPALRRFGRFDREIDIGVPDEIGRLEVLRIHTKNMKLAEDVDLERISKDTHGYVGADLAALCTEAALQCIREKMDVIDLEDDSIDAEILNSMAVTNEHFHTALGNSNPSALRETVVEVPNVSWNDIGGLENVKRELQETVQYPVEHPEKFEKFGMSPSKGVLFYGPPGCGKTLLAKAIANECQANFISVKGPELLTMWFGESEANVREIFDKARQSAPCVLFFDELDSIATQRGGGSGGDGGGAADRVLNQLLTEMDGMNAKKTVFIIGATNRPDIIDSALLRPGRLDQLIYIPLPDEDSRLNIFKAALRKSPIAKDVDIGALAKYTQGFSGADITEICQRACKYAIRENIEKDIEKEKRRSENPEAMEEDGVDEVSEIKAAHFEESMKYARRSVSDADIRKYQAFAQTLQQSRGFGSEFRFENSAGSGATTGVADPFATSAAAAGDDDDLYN

To fix the notation:
B1: RFP-OTU1 (enzyme, UniProt Q8LG98 1-306)
chain: MQNQIDMVKDEAEVAASISAIKGEEWGNCSSVEDQPSFQEEEAAKVPYVGDKEPLSSLAAEYQSGSPILLEKIKILDSQYIGIRRTRGDGNCFFRSFMFSYLEHILESQDRAEVDRIKVNVEKCRKTLQNLGYTDFTFEDFFALFLEQLDDILQGTEESISYDELVNRSRDQSVSDYIVMFFRFVTAGDIRTRADFFEPFITGLSNATVDQFCKSSVEPMGEESDHIHITALSDALGVAIRVVYLDRSSCDSGGVTVNHHDFVPVGITNEKDEEASAPFITLLYRPGHYDILYPKPSCKVSDNVGK
B2: OTU1-RFP (enzyme, UniProt Q8LG98 1-306)
chain: MQNQIDMVKDEAEVAASISAIKGEEWGNCSSVEDQPSFQEEEAAKVPYVGDKEPLSSLAAEYQSGSPILLEKIKILDSQYIGIRRTRGDGNCFFRSFMFSYLEHILESQDRAEVDRIKVNVEKCRKTLQNLGYTDFTFEDFFALFLEQLDDILQGTEESISYDELVNRSRDQSVSDYIVMFFRFVTAGDIRTRADFFEPFITGLSNATVDQFCKSSVEPMGEESDHIHITALSDALGVAIRVVYLDRSSCDSGGVTVNHHDFVPVGITNEKDEEASAPFITLLYRPGHYDILYPKPSCKVSDNVGK
B3: RFP-OTU2 (enzyme, UniProt Q9LPT6 1-208)
chain: MEGIIVRRVIPSDNSCLFNAIGYVMDKDKNKAPELRQVIAAAVASNKEKYNEAFLGKLNEEYCAWILNPDKWGGAIELSILADYYGREIAAYDIQTSRCDLYGQTRNYDERVMLIYDGLHYDALALSPFEGAEEDFDMTIYPVGKDRSIGSIEGLALNLVKDQQRKRSYTDTANFTLRCGVCQIGVIGQKEAVEHAQATGHVNFQEYK

No constants are given. Whether binding was seen depends on the method and setting. In cells and extracts the contact can be indirect. Some binding calls cover weakened binding; strength is not graded here.

In the experiment the target is GFP-CDC48 (Arabidopsis thaliana) (UniProt P54609). The experiment in a line: co-IP; GFP-CDC48 transiently co-expressed with RFP-tagged OTU variants in N. benthamiana leaves; GFP-CDC48 purified with GFP-trap beads, immunoblot.
For B1, the binding result is recorded as “binds”. In the case of B2, the binding result was “binds”. Regarding B3, the binding entry is on record as “binds”.
